Assay results taken from article PMC7032568.
Changes are numbered by the printed parent chain. These are yes or no findings as the source states them, for the method shown. In cells and extracts the contact can be indirect. Some entries that bind do so weakly or less than the wild type. Sequences can lack the tags named with a protein. One block for each molecule: values may come before it.

Protein sequences, listed by entry. Tags and fused reporters are not part of them.
UniProt P28340: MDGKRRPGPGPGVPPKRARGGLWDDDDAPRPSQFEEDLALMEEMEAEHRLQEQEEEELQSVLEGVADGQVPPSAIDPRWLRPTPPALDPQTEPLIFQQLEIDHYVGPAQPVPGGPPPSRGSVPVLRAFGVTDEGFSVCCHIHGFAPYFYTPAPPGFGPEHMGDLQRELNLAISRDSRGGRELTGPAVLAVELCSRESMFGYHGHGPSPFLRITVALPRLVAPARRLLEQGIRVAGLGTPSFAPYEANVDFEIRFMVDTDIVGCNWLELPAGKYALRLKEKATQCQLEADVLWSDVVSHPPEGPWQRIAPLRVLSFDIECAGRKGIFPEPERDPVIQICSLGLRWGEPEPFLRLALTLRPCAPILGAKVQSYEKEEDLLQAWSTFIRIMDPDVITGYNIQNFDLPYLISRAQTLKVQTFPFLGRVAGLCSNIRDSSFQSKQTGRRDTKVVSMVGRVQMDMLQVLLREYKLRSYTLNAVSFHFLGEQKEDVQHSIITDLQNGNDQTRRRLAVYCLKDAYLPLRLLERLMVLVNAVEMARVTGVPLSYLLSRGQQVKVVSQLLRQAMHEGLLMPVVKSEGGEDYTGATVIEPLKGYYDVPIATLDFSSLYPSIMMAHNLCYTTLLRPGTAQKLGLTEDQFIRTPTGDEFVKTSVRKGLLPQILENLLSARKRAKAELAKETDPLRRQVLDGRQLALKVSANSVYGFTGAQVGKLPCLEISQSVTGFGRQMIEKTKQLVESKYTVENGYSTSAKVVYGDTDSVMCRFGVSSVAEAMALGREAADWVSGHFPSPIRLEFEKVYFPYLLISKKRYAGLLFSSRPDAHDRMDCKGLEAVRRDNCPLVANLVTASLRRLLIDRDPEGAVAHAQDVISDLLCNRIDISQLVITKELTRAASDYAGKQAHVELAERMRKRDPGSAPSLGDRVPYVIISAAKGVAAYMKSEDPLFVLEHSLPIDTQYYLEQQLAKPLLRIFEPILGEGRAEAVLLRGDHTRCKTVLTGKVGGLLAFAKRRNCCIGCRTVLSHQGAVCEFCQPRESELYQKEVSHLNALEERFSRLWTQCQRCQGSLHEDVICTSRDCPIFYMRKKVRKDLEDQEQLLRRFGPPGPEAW

How the values were obtained:
[1] = biological target: T1, Flag-tagged DDX11 (wild type) (human) (UniProt Q96FC9); test: co-IP; Flag-tagged protein captured overnight on ANTI-FLAG M2 Affinity beads from 293T whole cell lysates (150 mM NaCl, 0.1% NP-40, treated with benzonase); beads washed three times with lysis buffer; Western blot
T1 sequence: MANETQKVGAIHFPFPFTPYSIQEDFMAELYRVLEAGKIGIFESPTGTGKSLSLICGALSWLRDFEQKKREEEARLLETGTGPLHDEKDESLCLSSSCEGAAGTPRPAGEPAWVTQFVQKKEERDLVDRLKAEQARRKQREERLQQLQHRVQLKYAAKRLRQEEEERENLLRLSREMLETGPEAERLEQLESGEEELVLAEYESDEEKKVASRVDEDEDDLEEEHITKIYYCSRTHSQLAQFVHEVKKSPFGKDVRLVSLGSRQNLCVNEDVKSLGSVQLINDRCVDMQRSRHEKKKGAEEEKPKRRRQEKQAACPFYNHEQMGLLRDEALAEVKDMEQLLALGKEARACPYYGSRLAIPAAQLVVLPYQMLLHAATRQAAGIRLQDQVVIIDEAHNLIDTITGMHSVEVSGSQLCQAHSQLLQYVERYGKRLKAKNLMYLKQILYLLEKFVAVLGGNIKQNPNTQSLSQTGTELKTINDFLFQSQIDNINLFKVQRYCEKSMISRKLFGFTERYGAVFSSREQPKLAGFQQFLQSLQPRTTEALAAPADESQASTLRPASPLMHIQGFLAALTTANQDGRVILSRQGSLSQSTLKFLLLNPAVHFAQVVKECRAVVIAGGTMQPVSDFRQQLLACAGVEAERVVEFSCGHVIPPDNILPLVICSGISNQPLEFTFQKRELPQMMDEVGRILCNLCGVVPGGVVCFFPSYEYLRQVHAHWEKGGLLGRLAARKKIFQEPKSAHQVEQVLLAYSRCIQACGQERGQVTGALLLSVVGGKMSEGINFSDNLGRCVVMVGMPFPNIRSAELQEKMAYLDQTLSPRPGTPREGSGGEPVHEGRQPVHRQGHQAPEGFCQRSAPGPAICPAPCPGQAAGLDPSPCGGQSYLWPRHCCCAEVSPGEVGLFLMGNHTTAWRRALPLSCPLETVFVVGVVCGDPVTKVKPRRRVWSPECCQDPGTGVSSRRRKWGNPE

[2] = biological target: T2, Flag-tagged DDX11 C267S (human) (UniProt Q96FC9); test: as above
T2 sequence: T1 sequence with C267S

binding [1]: binds | binding [2]: binds
Molecule: untagged POLD1 (from UniProt P28340 1-1107)

binding [1]: binds | binding [2]: binds
B1: myc-tagged WDHD1 (protein, UniProt O75717 1-1129)
chain: MPATRKPMRYGHTEGHTEVCFDDSGSFIVTCGSDGDVRIWEDLDDDDPKFINVGEKAYSCALKSGKLVTAVSNNTIQVHTFPEGVPDGILTRFTTNANHVVFNGDGTKIAAGSSDFLVKIVDVMDSSQQKTFRGHDAPVLSLSFDPKDIFLASASCDGSVRVWQISDQTCAISWPLLQKCNDVINAKSICRLAWQPKSGKLLAIPVEKSVKLYRRESWSHQFDLSDNFISQTLNIVTWSPCGQYLAAGSINGLIIVWNVETKDCMERVKHEKGYAICGLAWHPTCGRISYTDAEGNLGLLENVCDPSGKTSSSKVSSRVEKDYNDLFDGDDMSNAGDFLNDNAVEIPSFSKGIINDDEDDEDLMMASGRPRQRSHILEDDENSVDISMLKTGSSLLKEEEEDGQEGSIHNLPLVTSQRPFYDGPMPTPRQKPFQSGSTPLHLTHRFMVWNSIGIIRCYNDEQDNAIDVEFHDTSIHHATHLSNTLNYTIADLSHEAILLACESTDELASKLHCLHFSSWDSSKEWIIDLPQNEDIEAICLGQGWAAAATSALLLRLFTIGGVQKEVFSLAGPVVSMAGHGEQLFIVYHRGTGFDGDQCLGVQLLELGKKKKQILHGDPLPLTRKSYLAWIGFSAEGTPCYVDSEGIVRMLNRGLGNTWTPICNTREHCKGKSDHYWVVGIHENPQQLRCIPCKGSRFPPTLPRPAVAILSFKLPYCQIATEKGQMEEQFWRSVIFHNHLDYLAKNGYEYEESTKNQATKEQQELLMKMLALSCKLEREFRCVELADLMTQNAVNLAIKYASRSRKLILAQKLSELAVEKAAELTATQVEEEEEEEDFRKKLNAGYSNTATEWSQPRFRNQVEEDAEDSGEADDEEKPEIHKPGQNSFSKSTNSSDVSAKSGAVTFSSQGRVNPFKVSASSKEPAMSMNSARSTNILDNMGKSSKKSTALSRTTNNEKSPIIKPLIPKPKPKQASAASYFQKRNSQTNKTEEVKEENLKNVLSETPAICPPQNTENQRPKTGFQMWLEENRSNILSDNPDFSDEADIIKEGMIRFRVLSTEERKVWANKAKGETASEGTEAKKRKRVVDESDETENQEEKAKENLNLSKKQKPLDFSTNQKLSAFAFKQE
